Assay results as given in article PMC10330700.
These are yes or no findings as the source states them, for the method shown. Binding seen in cells or lysates may run through a third protein. Some binding calls cover weakened binding; strength is not graded here.

The chains behind the UniProt entries cited, without tags or fusion partners.
UniProt P41233: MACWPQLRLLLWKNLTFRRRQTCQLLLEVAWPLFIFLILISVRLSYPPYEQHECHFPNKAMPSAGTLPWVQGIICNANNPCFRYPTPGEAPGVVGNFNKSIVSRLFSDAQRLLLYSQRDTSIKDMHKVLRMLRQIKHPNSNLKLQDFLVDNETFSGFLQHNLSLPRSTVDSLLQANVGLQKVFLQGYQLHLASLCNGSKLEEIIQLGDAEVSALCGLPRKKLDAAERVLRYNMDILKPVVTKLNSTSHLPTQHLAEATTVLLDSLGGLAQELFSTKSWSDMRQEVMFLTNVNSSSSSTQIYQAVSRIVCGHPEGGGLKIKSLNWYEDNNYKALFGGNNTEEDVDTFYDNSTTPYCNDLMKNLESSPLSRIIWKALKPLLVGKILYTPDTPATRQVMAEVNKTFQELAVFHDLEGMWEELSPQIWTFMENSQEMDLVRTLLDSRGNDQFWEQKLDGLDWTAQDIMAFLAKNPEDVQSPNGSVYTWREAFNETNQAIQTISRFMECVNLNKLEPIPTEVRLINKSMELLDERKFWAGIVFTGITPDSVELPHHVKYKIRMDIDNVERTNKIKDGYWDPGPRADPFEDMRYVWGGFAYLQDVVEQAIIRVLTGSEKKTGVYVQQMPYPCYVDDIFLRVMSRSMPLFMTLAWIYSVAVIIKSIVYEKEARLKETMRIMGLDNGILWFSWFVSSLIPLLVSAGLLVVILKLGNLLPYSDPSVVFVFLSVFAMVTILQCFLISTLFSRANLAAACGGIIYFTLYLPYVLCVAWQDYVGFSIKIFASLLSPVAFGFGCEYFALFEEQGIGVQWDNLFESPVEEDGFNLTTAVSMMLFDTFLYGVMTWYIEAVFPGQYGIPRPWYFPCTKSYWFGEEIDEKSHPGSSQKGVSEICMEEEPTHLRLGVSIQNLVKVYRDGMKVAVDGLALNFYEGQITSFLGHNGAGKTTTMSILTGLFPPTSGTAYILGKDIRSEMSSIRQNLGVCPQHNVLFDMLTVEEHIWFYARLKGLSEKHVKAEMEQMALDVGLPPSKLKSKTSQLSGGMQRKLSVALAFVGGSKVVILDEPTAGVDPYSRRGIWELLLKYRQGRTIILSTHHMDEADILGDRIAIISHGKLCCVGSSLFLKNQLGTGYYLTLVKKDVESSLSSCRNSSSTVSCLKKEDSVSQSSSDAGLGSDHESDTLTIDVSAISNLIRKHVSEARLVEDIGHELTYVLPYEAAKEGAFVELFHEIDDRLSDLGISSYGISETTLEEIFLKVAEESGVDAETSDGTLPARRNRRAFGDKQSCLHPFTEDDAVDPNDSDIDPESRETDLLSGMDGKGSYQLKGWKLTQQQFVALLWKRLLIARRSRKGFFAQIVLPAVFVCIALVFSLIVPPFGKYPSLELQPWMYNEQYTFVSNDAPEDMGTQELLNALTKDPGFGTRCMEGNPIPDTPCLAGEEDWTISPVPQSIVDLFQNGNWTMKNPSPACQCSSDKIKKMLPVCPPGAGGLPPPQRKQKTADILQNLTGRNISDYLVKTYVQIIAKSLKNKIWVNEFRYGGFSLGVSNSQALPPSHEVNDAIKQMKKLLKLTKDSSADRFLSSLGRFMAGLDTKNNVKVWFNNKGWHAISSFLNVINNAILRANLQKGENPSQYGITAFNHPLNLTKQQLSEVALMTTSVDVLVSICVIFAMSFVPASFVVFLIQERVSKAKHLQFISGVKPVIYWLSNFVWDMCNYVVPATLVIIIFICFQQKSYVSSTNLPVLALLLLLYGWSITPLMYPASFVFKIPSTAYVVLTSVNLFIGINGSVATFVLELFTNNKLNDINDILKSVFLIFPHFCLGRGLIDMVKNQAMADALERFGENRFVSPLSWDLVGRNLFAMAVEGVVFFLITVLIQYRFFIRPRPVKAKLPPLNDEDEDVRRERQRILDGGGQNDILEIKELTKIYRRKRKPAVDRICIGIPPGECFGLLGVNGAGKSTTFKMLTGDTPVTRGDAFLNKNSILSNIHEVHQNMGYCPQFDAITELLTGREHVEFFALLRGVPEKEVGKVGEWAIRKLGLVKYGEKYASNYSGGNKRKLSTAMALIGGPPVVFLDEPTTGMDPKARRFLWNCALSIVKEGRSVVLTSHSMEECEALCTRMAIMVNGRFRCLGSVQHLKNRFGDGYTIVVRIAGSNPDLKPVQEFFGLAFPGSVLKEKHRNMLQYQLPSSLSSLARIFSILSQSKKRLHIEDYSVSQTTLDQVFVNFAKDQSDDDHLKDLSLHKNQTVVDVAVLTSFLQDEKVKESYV

B1: Scavenging Receptor SR-BI (receptor, UniProt Q61009 1-509)
chain: MGGSSRARWVALGLGALGLLFAALGVVMILMVPSLIKQQVLKNVRIDPSSLSFGMWKEIPVPFYLSVYFFEVVNPNEVLNGQKPVVRERGPYVYREFRQKVNITFNDNDTVSFVENRSLHFQPDKSHGSESDYIVLPNILVLGGSILMESKPVSLKLMMTLALVTMGQRAFMNRTVGEILWGYDDPFVHFLNTYLPDMLPIKGKFGLFVGMNNSNSGVFTVFTGVQNFSRIHLVDKWNGLSKIDYWHSEQCNMINGTSGQMWAPFMTPESSLEFFSPEACRSMKLTYNESRVFEGIPTYRFTAPDTLFANGSVYPPNEGFCPCRESGIQNVSTCRFGAPLFLSHPHFYNADPVLSEAVLGLNPNPKEHSLFLDIHPVTGIPMNCSVKMQLSLYIKSVKGIGQTGKIEPVVLPLLWFEQSGAMGGKPLSTFYTQLVLMPQVLHYAQYVLLGLGGLLLLVPIICQLRSQEKCFLFWSGSKKGSQDKEAIQAYSESLMSPAAKGTVLQEAKL

Target: HECT, UBA and WWE domain containing 1 (HUWE1) (mouse (endogenous in murine CD4+ T cells)) (UniProt Q7TMY8)
Test: co-IP; co-immunoprecipitation of endogenous proteins from activated CD4+ T cells; which protein was precipitated not given

Molecule | binding
ATP-binding cassette transporter A1 (ABCA1) (from UniProt P41233 1-2261) | binds
B1 | no binding
